The test concerns the target T1, thyroid hormone receptor interactor 13 (TRIP13) (UniProt Q15645).
T1 sequence: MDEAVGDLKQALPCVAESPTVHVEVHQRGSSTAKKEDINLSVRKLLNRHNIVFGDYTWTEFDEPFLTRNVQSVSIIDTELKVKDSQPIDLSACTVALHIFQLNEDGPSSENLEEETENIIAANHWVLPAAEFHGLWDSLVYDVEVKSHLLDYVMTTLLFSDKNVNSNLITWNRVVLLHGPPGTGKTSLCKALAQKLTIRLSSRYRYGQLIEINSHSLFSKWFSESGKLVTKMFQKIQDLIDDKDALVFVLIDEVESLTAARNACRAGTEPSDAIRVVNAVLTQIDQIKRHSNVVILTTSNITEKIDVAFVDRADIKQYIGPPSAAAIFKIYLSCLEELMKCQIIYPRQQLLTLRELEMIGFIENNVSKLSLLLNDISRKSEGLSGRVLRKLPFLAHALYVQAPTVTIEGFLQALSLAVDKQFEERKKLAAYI
As to the kind of experiment: co-IP; melanoma cell lysate in IP lysis solution; primary antibody and protein A/G beads, 4°C for 4 h; western blot. On the technique in general: Immunoblotting shows a protein as a band on a membrane.

Sequences of proteins named here, by UniProt entry; tags and fusion partners are left off.
UniProt P21333: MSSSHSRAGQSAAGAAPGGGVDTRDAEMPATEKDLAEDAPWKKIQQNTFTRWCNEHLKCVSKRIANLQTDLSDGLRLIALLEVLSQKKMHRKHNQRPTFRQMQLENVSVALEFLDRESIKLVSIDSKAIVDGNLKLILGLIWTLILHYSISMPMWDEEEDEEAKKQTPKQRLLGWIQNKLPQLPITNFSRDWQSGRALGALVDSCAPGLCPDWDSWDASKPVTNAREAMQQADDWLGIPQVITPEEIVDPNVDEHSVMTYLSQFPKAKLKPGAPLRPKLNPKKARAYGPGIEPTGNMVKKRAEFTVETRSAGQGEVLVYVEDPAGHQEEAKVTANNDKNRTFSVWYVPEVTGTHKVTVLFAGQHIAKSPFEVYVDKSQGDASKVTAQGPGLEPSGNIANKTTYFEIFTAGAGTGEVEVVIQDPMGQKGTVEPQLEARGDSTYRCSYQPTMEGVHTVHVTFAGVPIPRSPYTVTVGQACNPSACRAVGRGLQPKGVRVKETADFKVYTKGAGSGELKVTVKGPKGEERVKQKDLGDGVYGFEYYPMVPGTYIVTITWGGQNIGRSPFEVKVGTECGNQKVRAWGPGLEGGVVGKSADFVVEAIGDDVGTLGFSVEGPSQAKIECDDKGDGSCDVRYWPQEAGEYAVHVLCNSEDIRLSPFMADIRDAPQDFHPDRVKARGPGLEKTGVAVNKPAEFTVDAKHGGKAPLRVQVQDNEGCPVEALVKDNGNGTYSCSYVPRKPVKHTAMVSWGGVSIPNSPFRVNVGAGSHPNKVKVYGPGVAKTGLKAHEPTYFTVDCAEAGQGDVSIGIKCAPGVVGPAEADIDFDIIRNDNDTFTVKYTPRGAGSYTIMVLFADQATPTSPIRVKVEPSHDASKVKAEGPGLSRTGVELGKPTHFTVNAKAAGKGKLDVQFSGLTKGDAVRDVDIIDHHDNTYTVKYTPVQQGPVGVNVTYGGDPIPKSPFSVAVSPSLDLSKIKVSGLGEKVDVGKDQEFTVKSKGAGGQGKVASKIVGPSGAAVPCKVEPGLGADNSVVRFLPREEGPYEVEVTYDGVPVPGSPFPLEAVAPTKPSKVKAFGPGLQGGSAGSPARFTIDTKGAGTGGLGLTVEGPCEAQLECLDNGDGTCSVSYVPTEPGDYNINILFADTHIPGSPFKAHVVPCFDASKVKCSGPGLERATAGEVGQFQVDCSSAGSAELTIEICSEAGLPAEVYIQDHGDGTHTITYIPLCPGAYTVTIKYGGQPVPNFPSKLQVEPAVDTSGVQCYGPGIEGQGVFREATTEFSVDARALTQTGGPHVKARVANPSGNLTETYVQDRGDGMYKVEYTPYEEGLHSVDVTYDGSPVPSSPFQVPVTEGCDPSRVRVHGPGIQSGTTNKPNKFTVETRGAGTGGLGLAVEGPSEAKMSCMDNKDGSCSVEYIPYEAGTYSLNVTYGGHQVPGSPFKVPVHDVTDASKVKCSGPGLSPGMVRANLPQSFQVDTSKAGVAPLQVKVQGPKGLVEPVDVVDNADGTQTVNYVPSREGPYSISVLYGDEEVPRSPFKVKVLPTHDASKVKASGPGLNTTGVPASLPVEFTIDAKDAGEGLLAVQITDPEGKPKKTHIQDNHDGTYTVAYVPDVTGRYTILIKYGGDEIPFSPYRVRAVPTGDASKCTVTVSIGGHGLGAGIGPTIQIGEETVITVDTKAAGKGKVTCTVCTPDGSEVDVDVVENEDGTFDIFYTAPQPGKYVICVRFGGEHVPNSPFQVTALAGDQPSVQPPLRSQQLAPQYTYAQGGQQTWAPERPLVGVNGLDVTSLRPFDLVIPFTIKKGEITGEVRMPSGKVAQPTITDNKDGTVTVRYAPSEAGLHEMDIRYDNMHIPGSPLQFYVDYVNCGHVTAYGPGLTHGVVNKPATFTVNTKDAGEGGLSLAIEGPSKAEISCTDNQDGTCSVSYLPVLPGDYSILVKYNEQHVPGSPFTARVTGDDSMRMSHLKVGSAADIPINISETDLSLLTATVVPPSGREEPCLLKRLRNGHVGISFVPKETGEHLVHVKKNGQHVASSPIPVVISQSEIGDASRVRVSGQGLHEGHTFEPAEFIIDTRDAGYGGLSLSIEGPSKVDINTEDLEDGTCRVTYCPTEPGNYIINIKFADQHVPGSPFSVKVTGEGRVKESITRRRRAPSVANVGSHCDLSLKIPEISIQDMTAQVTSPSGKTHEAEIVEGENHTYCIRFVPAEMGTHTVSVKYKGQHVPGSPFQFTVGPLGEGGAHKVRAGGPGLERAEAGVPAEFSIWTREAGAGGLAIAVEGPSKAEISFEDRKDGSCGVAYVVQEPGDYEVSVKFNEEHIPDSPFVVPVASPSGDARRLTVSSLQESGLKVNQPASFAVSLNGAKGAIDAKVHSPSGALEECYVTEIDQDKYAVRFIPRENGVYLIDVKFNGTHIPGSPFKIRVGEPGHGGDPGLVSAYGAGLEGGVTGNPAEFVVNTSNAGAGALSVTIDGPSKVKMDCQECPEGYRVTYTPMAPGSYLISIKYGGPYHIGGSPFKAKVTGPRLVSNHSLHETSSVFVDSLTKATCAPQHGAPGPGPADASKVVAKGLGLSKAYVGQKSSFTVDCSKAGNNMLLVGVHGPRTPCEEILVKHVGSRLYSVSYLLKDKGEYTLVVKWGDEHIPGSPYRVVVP

This is an account of results in publication PMC9578791.

These are yes or no findings as the source states them, for the method shown. In cells and extracts the contact can be indirect. Some results given as binding are weak or reduced against the parent protein; the word gives no strength.

With “filamin A (FLNA) (from UniProt P21333 1-2647)”, the binding entry is reported as “binds”.
